{
  "source": "PubChem BioAssay AID1347076",
  "about": "(National Center for Advancing Translational Sciences (NCATS), 2019)",
  "note": "“And” between values parts separate entries of the source, which are not always exact repeats. Equal entries are not always repeated. Among all 400,000 compounds or so, about 13,000 (3.2%) were called active. Inconclusive results, whose numbers are uncertain, are shown with a selection of clear calls. Calls come from the whole dose curve; as a rule, active = well fitted cell-killing curve with a large enough effect; inconclusive = small, poorly fitted or top-dose-only effect, or effect the other way; inactive = flat fitted curve, though single readings scatter. A potency beside an inconclusive call is a rough fit, not a confirmed value. % is set by controls: 0 for no effect and ±100 for the full control effect; potency is the fitted concentration of half-maximal effect.",
  "data": [
    {"experiment": "qHTS assay for MDR1-selective chemotherapeutics: Primary screen using the drug-selected MDR subline cells KB-V1; note: nearly all actives have a fitted effect of over 60% in size", "settings": "KB-V1 MDR cells viability, CellTiter-Glo, 72 h; activity change, negative = cytotoxicity: at 46.1 µM (top of the series)", "outline": "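qHTS viability screen in drug-selected KB-V1 MDR cells: 72 h compound treatment at 37 degrees C, ATP luminescence end point.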", "values": [
      {"compound": "Cc1ccc(C)c(NC(=O)COC(=O)CSc2ccccc2)c1", "Potency": "inconclusive: 3.66 µM [cytotoxic, partial curve, poor fit]"},
      {"compound": "CC(Cc1ccccc1)NC(=O)c1ccc([N+](=O)[O-])cc1", "note": "(stereo not given)", "Potency": "inconclusive: 20.6 µM [cytotoxic, partial curve, poor fit]"},
      {"compound": "C/C(=N\\NC(=O)c1nn(C)c(C)c1Br)c1ccc(NC(=O)c2ccccc2F)cc1", "Potency": "inconclusive: 2.31 µM [cytotoxic, full curve]"},
      {"compound": "CCn1c2ccccc2c2cc(/C=C3/C=Cc4ccccc43)ccc21", "Potency": "inconclusive: 32.6 µM [cytotoxic, single point]"},
      {"compound": "O=C(NC1CCC(=O)N(CCSc2ccccc2)CC1)OCc1ccccc1", "note": "(stereo not given)", "Potency": "inconclusive: 18.4 µM [cytotoxic, single point]"},
      {"compound": "COc1ccc(NC(=O)CSc2ccc3nnc(-c4cccnc4)n3n2)c(OC)c1", "Potency": "inactive"},
      {"compound": "COc1ccccc1C(=O)NC1(C(F)(F)F)C(=O)NC(C)=C1C#N", "note": "(stereo not given)", "Potency": "inactive"},
      {"compound": "CCOC(=O)CSc1nc2cc(C(=O)OC)ccc2c(=O)n1CCN1CCOCC1", "Potency": "active: 16.4 µM"},
      {"compound": "COC(=O)c1sccc1S(=O)(=O)Nc1ccc(Cl)cc1", "Potency": "inconclusive: 18.4 µM [rising, single point]"},
      {"compound": "COc1ccc(CCn2c(=N)c(C(=O)NC3CCCC3)cc3c(=O)n4cccc(C)c4nc32)cc1", "Potency": "inconclusive: 29.1 µM [cytotoxic, single point]"},
      {"compound": "CCN(CC)S(=O)(=O)c1ccc(OC)c(NC(=O)CSc2cc(C)ccc2C)c1", "Potency": "inconclusive: 18.4 µM [cytotoxic, single point]"},
      {"compound": "Cc1ccc(C)c(N(CC(=O)NC2CCCC2)C(=O)c2oc(C(C)(C)C)cc2C)c1", "Potency": "inconclusive: 23.1 µM [cytotoxic, partial curve, poor fit]"},
      {"compound": "C#CCOc1c(Br)cc(C2C(C(=O)OC)=C(C)NC3=C2C(=O)c2ccccc23)cc1OCC", "note": "(stereo not given)", "Potency": "inconclusive: 25.9 µM [cytotoxic, partial curve, poor fit]"},
      {"compound": "Cc1cccc2nc(-c3ccco3)oc(=O)c12", "Potency": "inconclusive: 5.17 µM [rising, full curve, poor fit]"},
      {"compound": "Cc1ccccc1NC(=O)Cn1nnc(C(=O)NCc2ccco2)c1N", "Potency": "inconclusive: 14.6 µM [cytotoxic, partial curve, poor fit] and inconclusive: 20.6 µM [cytotoxic, partial curve]"},
      {"compound": "CC1SC(C)C(=O)N(CC(=O)NCc2ccc(F)cc2)C1=O", "note": "(stereo not given)", "Potency": "inconclusive: 18.4 µM [rising, single point]"},
      {"compound": "CC(C)Oc1ccc(CCNC(=O)C2CCC(=O)N(Cc3cccc(F)c3)C2)cc1", "note": "(stereo not given)", "Potency": "inconclusive: 9.2 µM [cytotoxic, partial curve]"},
      {"compound": "O=C(NCCc1ccc(Cl)cc1)c1cc(S(=O)(=O)N2CCCC2)ccc1F", "Potency": "inconclusive: 13 µM [cytotoxic, partial curve]"},
      {"compound": "CCOC(=O)c1ccccc1NC(=O)c1cn(-c2ccc(OC)cc2)c(=O)c2ccccc12", "Potency": "inconclusive: 9.2 µM [cytotoxic, partial curve, poor fit]"},
      {"compound": "COc1ccccc1CNC(=O)COC(=O)Cc1c(Cl)cccc1Cl", "Potency": "inconclusive: 18.4 µM [rising, partial curve, poor fit]"},
      {"compound": "O=C(c1ccc(OC2CCN(Cc3ccccc3C(F)(F)F)CC2)cc1)N1CCCCC1", "Potency": "active: 16.4 µM"},
      {"compound": "O=C(NC1CCCCC1)C(c1ccc(F)cc1)N(Cc1ccccc1)C(=O)CN1C(=O)c2ccccc2S1(=O)=O", "note": "(stereo not given)", "Potency": "inconclusive: 6.51 µM [cytotoxic, partial curve]"},
      {"compound": "COc1ccc(S(=O)(=O)NNC(=O)Cc2csc(C)n2)cc1[N+](=O)[O-]", "Potency": "inconclusive: 11.6 µM [rising, partial curve, poor fit]"},
      {"compound": "CC(C)n1c(O)c(N=NC(=O)CNC(=O)Cc2ccc(Cl)cc2)c2ccccc21", "Potency": "inactive"},
      {"compound": "O=C(Nc1ccccc1)c1cc2c(-c3ccccc3)nn(-c3ccccc3)c2s1", "Potency": "inconclusive: 18.4 µM [cytotoxic, single point]"},
      {"compound": "COc1ccc(CCNC(=O)c2noc3c2CCCC3)cc1OC", "Potency": "inconclusive: 20.6 µM [cytotoxic, partial curve, poor fit]"},
      {"compound": "CN(C)S(=O)(=O)c1cccc(C(=O)N2CCN(C(=O)C3CCCO3)CC2)c1", "note": "(stereo not given)", "Potency": "inconclusive: 29.1 µM [rising, single point]"},
      {"compound": "CN1C(=O)CSc2ccc(NC(=O)N3CCN(c4ccccn4)CC3)cc21", "Potency": "active: 18.4 µM"},
      {"compound": "C#CC(CC)(CC)NC(=O)c1cc(S(=O)(=O)N2CCCCC2)ccc1N1CCOCC1", "Potency": "inconclusive: 7.31 µM [cytotoxic, partial curve]"},
      {"compound": "O=C(c1ccc(NC2=NC3CS(=O)(=O)CC3S2)cc1)N(CCO)Cc1ccccc1", "note": "(stereo not given)", "activity change, negative = cytotoxicity": "inconclusive: 45.8%"},
      {"compound": "CC(C(=O)Nc1ccc(C#N)cc1)N1CCN(C(=O)C2CC2)CC1", "note": "(stereo not given)", "Potency": "inactive"},
      {"compound": "Cc1cc(C)c2nc(C(F)(F)F)nc(NCCCN3CCCC3=O)c2c1", "Potency": "inconclusive: 29.1 µM [cytotoxic, single point]"},
      {"compound": "OCC1OC(n2cnc3c(SCc4ccccc4)ncnc32)C(O)C1O", "note": "(stereo not given)", "Potency": "inconclusive: 29.1 µM [cytotoxic, single point]"},
      {"compound": "O=C(NCCN1CCN(c2ccccc2)CC1)c1cccn2c(=O)c3ccccc3nc12", "Potency": "inconclusive: 23.1 µM [cytotoxic, partial curve, poor fit]"},
      {"compound": "Cc1cccc(CSc2nnc(-c3ccccn3)n2N)c1", "Potency": "inconclusive: 20.6 µM [cytotoxic, single point]"},
      {"compound": "CC(=O)c1cccc(NC(=O)Nc2cccs2)c1", "Potency": "inactive"},
      {"compound": "Cc1n[nH]c(=S)n1/N=C/c1ccccc1OCc1ccc(Cl)cc1Cl", "Potency": "inactive"},
      {"compound": "O=C1C=C(c2ccc(CO)cc2)C[C@@H](c2ccc3c(c2)OCO3)C1", "Potency": "inactive"},
      {"compound": "Cc1ccc(C(=O)NNC(=O)c2cccc(S(=O)(=O)N3CCN(c4ccccc4)CC3)c2)cc1", "Potency": "inconclusive: 18.4 µM [cytotoxic, partial curve]"},
      {"compound": "CCOC(=O)c1ccc(N=Cc2cnc(N)nc2N)cc1", "Potency": "inconclusive: 25.9 µM [cytotoxic, single point]"}
    ]}
  ]
}
